Reference: PubChem BioAssay AID504847 (National Center for Advancing Translational Sciences (NCATS), 2011)
Several values for one entry are separate records, joined by “and”; a condition that tells them apart may be missing. Identical values can stand only once. Out of some 400,000 compounds screened, about 3,700 (0.93%) were called active. This list was built around the results that the source calls inconclusive (neither active nor inactive); the mix of calls is not that of the screen. Calls come from the whole dose curve; as a rule, active = well fitted inhibition curve with a large enough effect; inconclusive = small, poorly fitted or top-dose-only effect, or another doubt; inactive = no such curve, though single readings can be large or run the other way. A potency beside an inconclusive call is a rough fit, not a confirmed value.

Sequences of proteins named here, by UniProt entry; tags and fusion partners are left off.
UniProt P11473, whole entry, looked up: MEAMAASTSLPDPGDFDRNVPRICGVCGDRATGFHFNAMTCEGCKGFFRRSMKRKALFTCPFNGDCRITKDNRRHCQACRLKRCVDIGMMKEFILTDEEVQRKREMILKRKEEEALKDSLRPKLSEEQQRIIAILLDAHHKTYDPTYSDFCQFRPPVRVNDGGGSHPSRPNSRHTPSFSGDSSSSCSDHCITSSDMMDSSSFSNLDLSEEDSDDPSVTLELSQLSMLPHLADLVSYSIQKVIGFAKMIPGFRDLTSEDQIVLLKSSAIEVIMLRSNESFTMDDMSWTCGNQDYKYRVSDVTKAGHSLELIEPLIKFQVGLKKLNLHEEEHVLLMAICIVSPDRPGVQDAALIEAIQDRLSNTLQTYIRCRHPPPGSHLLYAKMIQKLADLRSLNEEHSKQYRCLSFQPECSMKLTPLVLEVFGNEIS

Molecular target: Vitamin D3 receptor (Homo sapiens) (UniProt P11473)
Assay: Inhibitors of the vitamin D receptor (VDR): qHTS
Settings: VDR-SRC2-3 peptide fluorescence polarization, 2 h; max response, negative = inhibition: hits give low values
Procedure, shortened: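 Signal is fluorescence polarization, reporting how far test compounds block the interaction of VDR with the SRC2-3 coregulator peptide after a 2 h room-temperature incubation.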
% is set by controls: 0 for no effect and ±100 for the full control effect; potency is the fitted concentration of half-maximal effect.

SMILES	Potency	max response, negative = inhibition
Cc1cccnc1NC(=O)C1CCCN(S(=O)(=O)c2ccc3c(c2)oc(=O)n3C)C1 (configuration not stated)	inconclusive: 12.6 µM [inhibitor, partial curve, poor fit]	–
CC(C)(Oc1ccc(Cl)cc1)C(=O)NCCN1C(=O)S/C(=C/c2cccnc2)C1=O	inconclusive: 56.2 µM [inhibitor, partial curve, poor fit]	–
Cc1ccc(S(=O)(=O)N(C)Cc2nc(-c3ccccc3)oc2C)cc1	–	inactive: 6.26%
N#Cc1c(Nc2ccccc2C(F)(F)F)s[nH]c1=O	inconclusive: 3.55 µM [inhibitor, full curve, poor fit]	–
COc1ccc(Cn2ccc3nc(C)c(C(=O)N4CCN(c5ccc(OC)cc5)CC4)cc3c2=O)cc1	inconclusive: 4.47 µM [inhibitor, single point]	–
Cc1cc(C(=O)OCC(=O)N2CCCC2)c2ccccc2n1	–	inactive: -13.9%
COc1ccc(-c2cc(C(=O)NN)n(-c3ccccc3)n2)cc1	inconclusive: 89.1 µM [inhibitor, single point]	–
O=C(O)CCCN1C(=O)/C(=C\c2ccc(-c3nc4ccccc4s3)o2)SC1=S	inconclusive: 22.4 µM [inhibitor, single point]	–
Cc1ccc2nc(SCc3nc4ccccc4c(=O)[nH]3)[nH]c2c1	inconclusive: 89.1 µM [inhibitor, single point]	–
CC1(C)[C@@H](OC(=O)CCC(=O)O)CC[C@@]2(C)[C@H]1CC[C@@]1(C)[C@H]2C(=O)C=C2[C@H]3C[C@](C)(C(=O)O)CC[C@]3(C)CC[C@@]21C	inconclusive: 35.5 µM [inhibitor, partial curve, poor fit]	–
CCOC(=O)C1=C(C)OC(N)=C(C#N)C1c1cc2ccccc2nc1N1CCCCC1 (configuration not stated)	inconclusive: 28.2 µM [inhibitor, partial curve, poor fit]	–
Cc1ccc(C(=S)N2CCN(Cc3ccccc3)CC2)s1	inconclusive: 79.4 µM [inhibitor, single point]	–
CCOC(=O)c1cc(C(=O)Nc2sc3c(c2C#N)CCCC3)nn1C	inconclusive: 89.1 µM [inhibitor, single point]	–
COc1cccc(C(C2=C(O)CC(C)(C)CC2=O)C2C(=O)CC(C)(C)CC2=O)c1 (configuration not stated)	inconclusive: 79.4 µM [inhibitor, partial curve, poor fit]	–
O[C@@H](c1cc(C(F)(F)F)nc2c(C(F)(F)F)cccc12)[C@H]1CCCCN1	inconclusive: 22.4 µM [inhibitor, partial curve, poor fit]	–
Cc1cc(OCCCn2ccnc2)cc(C)c1Cl	inconclusive: 44.7 µM [inhibitor, partial curve, poor fit]	–
O=C(CCCc1ccccc1)Nc1ccc(Br)cc1F	active: 22.4 µM	–
CCn1c2ccccc2c2cc(NC(=O)c3ccc(Br)o3)ccc21	active: 50.1 µM	–
Cc1onc(-c2ccccc2Cl)c1C(=O)NC(=S)NCCc1ccccc1	inconclusive: 100 µM [inhibitor, partial curve, poor fit]	–
CCn1ccc2c(OCC(=O)Nc3ccccc3C(F)(F)F)cccc2c1=O	–	inactive: 12.9%
Cc1ccc2nc(CCc3nc4ccc(C)cc4o3)oc2c1	inconclusive: 25.1 µM [inhibitor, single point]	–

SMILES	Potency	max response, negative = inhibition
COc1cccc2cc(C(=O)C3=C(O)C(=O)N(CCN4CCOCC4)C3c3cccc(Cl)c3)oc12 (configuration not stated)	inconclusive: 89.1 µM [inhibitor, single point]	–
Cc1ccc(C)c(-n2c(N)c(C#N)c3nc4ccccc4nc32)c1	inconclusive: 39.8 µM [inhibitor, partial curve, poor fit]	–
COc1cccc(OC)c1NC(=O)CN1CCN(C)CC1	–	inactive: 9.62%
CC(C)[C@H](NS(=O)(=O)c1ccc2c(c1)OCCO2)C(=O)OCC(=O)Nc1cc(Cl)ccc1Cl	active: 79.4 µM	–
CCCCC(=O)NCCNc1nc2c(c(=O)n(C)c(=O)n2C)n1Cc1ccccc1	–	inactive: 6.62%
O=C1S/C(=C/c2ccc(N3CCOCC3)o2)C(=O)N1Cc1ccc(F)cc1	inconclusive: 89.1 µM [inhibitor, single point]	–
CCC(Sc1ncccc1C(=O)OC(C)C)C(=O)NCc1ccco1 (configuration not stated)	inconclusive: 89.1 µM [inhibitor, partial curve, poor fit]	–
CN(CCOc1ccc(Cl)cc1)CC(O)c1ccccc1 (configuration not stated)	–	inactive: -9.84%
COc1ccc(NC(=O)c2oc3ccc(S(=O)(=O)N4CCOCC4)cc3c2C)cc1	inconclusive: 39.8 µM [inhibitor, single point]	–
O=C(O)CCC/C=C\CC1C2CCC(O2)C1CNNC(=O)Nc1ccccc1 (configuration not stated)	–	inactive: -0.311% and inactive: -5.74%
Cc1ccc2c(c1)C(c1ccccc1)N(C(=O)Cc1ccc(F)cc1)CC(=O)N2 (configuration not stated)	–	inactive: -21.5%
Cc1c(Cl)cccc1NS(=O)(=O)c1ccc2c(c1)C1C=CCC1C(c1ccc(C(=O)O)cc1)N2 (configuration not stated)	inconclusive: 79.4 µM [inhibitor, single point]	–
Cc1cc(Cl)ccc1OCCCC(=O)NCCN1C(=O)S/C(=C\c2cccnc2)C1=O	inconclusive: 56.2 µM [inhibitor, partial curve]	–
COc1cccc(/C=N/Nc2ccc(S(=O)(=O)Nc3ccccc3C(=O)O)cc2[N+](=O)[O-])c1O	inconclusive: 89.1 µM [inhibitor, single point]	–
CC(C)[C@H](NC(=O)c1ccccc1Cl)C(=O)OCc1cc([N+](=O)[O-])cc2c1OCOC2	inconclusive: 89.1 µM [inhibitor, single point]	–
Nc1c(N2CCCC2)cc(Cl)c2nonc12	inconclusive: 79.4 µM [inhibitor, partial curve, poor fit]	–
Nc1c(Nc2ccccc2)c2ccccc2oc1=O	–	inactive: -17.1%
CCN1C(=O)C2(C(C#N)=C(N)Oc3c2c(C)nn3-c2ccccc2)c2ccccc21 (configuration not stated)	–	inactive: 12%
CCOC(=O)C1=C(C)c2ccccc2OC1(CC)C(=O)OCC (configuration not stated)	inconclusive: 126 µM [inhibitor, partial curve, poor fit]	–
S=C=Nc1cccc(NC(=S)NCCCCNC(=S)Nc2cccc(N=C=S)c2)c1	inconclusive: 7.08 µM [inhibitor, full curve]	–
COC(=O)c1c(-c2ccc(OC)cc2)oc2ccccc12	inconclusive: 79.4 µM [inhibitor, partial curve, poor fit]	–

SMILES	Potency	max response, negative = inhibition
CCOC(=O)c1ccccc1NC(=O)CSc1nccn1Cc1ccco1	–	inactive: 16.2%
O=C(CSc1ncc(S(=O)(=O)c2ccc(Cl)cc2)c(=O)[nH]1)Nc1cccc(C(F)(F)F)c1	inconclusive: 79.4 µM [inhibitor, partial curve]	–
O=C(O)CN1C(=O)/C(=C/c2ccc(N3CCCCC3)o2)SC1=S	inconclusive: 89.1 µM [inhibitor, single point]	–
Cc1ccc(N=C2NC(=O)/C(=C/C=C/c3ccco3)S2)cc1C	inconclusive: 7.94 µM [inhibitor, partial curve, poor fit]	–
CCN(Cc1ccccc1)C(=O)CCc1nnc(CCCc2ccccc2)o1	inconclusive: 89.1 µM [inhibitor, single point]	–
O=C(CCn1c2c(c3ccccc31)CCCC2)NNC(=O)c1ccc(Cl)c([N+](=O)[O-])c1	inconclusive: 50.1 µM [inhibitor, partial curve, poor fit]	–
CC[C@H]1[C@@H]2C=C[C@@H]3[C@H]4C/C=C\C(=O)NCCC[C@@H]5NC(=O)C(=C5O)C(=O)CC[C@@H]4C[C@@H]3[C@H]2C[C@H]1C	active: 39.8 µM	–
N/C(Cc1ccc([N+](=O)[O-])cc1)=N\OC(=O)c1ccc(Br)cc1	inconclusive: 79.4 µM [inhibitor, single point]	–
O=c1c2c3c(sc2nc2n1CCCS2)CCCC3	–	inactive: 3.66%
Cc1ccccc1Nc1c([N+](=O)[O-])cncc1[N+](=O)[O-]	–	inactive: -8.8%
O=C(c1ccco1)N1CCC2(CC1)CN(c1cccc(-c3ccccc3)c1)C2	inconclusive: 56.2 µM [inhibitor, partial curve, poor fit]	–
COc1ccc(-c2cc(C(=O)NC(C)c3ccccn3)c3ccccc3n2)cc1OC (configuration not stated)	inconclusive: 89.1 µM [inhibitor, single point]	–
O=C(Nc1ccc(C(F)(F)F)cc1)c1ccccc1Br	–	inactive: -0.778%
Cc1cc(C)c2c(-n3cccc3)c(C(=O)NNS(=O)(=O)c3ccc(Cl)cc3)sc2n1	–	inactive: -10.5%
O=C(c1ccc(S(=O)(=O)Cc2cc(F)ccc2F)c([N+](=O)[O-])c1)N1CCCC1	inconclusive: 79.4 µM [inhibitor, single point]	–
CCCCc1[nH]c(=O)c(C#N)c2c1CSC(C)(C)C2	inconclusive: 89.1 µM [inhibitor, single point]	–
Cn1ccc2cc(S(=O)(=O)N3CCN(C(=O)Nc4ccc(F)cc4F)CC3)ccc21	–	inactive: -2.9%
O=C(NCCOc1ccccc1Cl)c1cccc2c1C(=O)c1ccc(Cl)cc1S2(=O)=O	–	inactive: -13.1%
COc1ccc(CNC(=O)C[C@H]2C(=O)N(C3CCCCC3)C[C@@H]2Cc2ccccc2)cc1	inconclusive: 100 µM [inhibitor, single point]	–
C/C=C1\COC(C(=O)NCCCN2CCCC2=O)(C(F)(F)F)C=C1C=C(C)C (configuration not stated)	inconclusive: 89.1 µM [inhibitor, single point]	–
